{"source": "PubChem BioAssay AID588430", "about": "(Broad Institute, 2011)", "target": "Cyclin-dependent kinase 5 activator 1 (Homo sapiens) + Cyclin-dependent kinase 5 (Homo sapiens) (UniProt Q15078+Q00535)", "experiment": "human CDK5 activity blockade – biochemical, microfluidic mobility shift, dry powder, selectivity assay for GSK-3 alpha inhibitor project, dose response (AID 588430)", "details": "CDK5-p25 kinase, Caliper mobility shift, peptide conversion; at 35 µM (top of the series)", "note": "These results got no clear call from the source, so the numbers are uncertain.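 The calls were made as follows: active = compound whose fitted half-maximal inhibition concentration is at most triple the top dose in every replicate run; inconclusive = runs disagree, or flat partial inhibition, or poor curve fit; inactive = every run inactive: flat, opposite effect, or too weak.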"}
{"smiles": "Cn1c(SCc2nnc(-c3ccc(F)cc3)o2)nnc1C1COc2ccccc2O1", "note": "(configuration not stated)", "values": [{"measurement": "activity change, negative = inhibition", "result": "inconclusive: -32.3%"}]}
{"smiles": "COC(=O)c1nnn(-c2nonc2N)c1CSc1nc2ccccc2s1", "values": [{"measurement": "activity change, negative = inhibition", "result": "inconclusive: -2.39%"}]}
